Tests used:
Settings in all cases: at 1 µM
[1] = target: Ribosomal protein S6 kinase alpha-6 (Homo sapiens, UniProt Q9UK32); assay: Selectivity interaction (KinomeScan (DiscoverX)) EUB0001581a RPS6KA6
[2] = target: Cyclin-dependent kinase 19 (Homo sapiens) (UniProt Q9BWU1); assay: Selectivity interaction (KinomeScan (DiscoverX)) EUB0001581a CDK19
[3] = target: Dual specificity protein kinase CLK1 (Homo sapiens, UniProt P49759); assay: Selectivity interaction (KinomeScan (DiscoverX)) EUB0001581a CLK1
[4] = target: Tyrosine-protein kinase Lyn (Homo sapiens, UniProt P07948); assay: Selectivity interaction (KinomeScan (DiscoverX)) EUB0001581a LYN
[5] = target: MAP/microtubule affinity-regulating kinase 3 (Homo sapiens) (UniProt P27448); assay: Selectivity interaction (KinomeScan (DiscoverX)) EUB0001581a MARK3
[6] = target: Serine/threonine-protein kinase MRCK beta (Homo sapiens) (UniProt Q9Y5S2); assay: Selectivity interaction (KinomeScan (DiscoverX)) EUB0001581a CDC42BPB
[7] = target: Serine/threonine-protein kinase 10 (Homo sapiens) (UniProt O94804); assay: Selectivity interaction (KinomeScan (DiscoverX)) EUB0001581a STK10
[8] = target: Ephrin type-B receptor 3 (Homo sapiens) (UniProt P54753); assay: Selectivity interaction (KinomeScan (DiscoverX)) EUB0001581a EPHB3
[9] = target: Calcium/calmodulin-dependent protein kinase type II subunit delta (Homo sapiens) (UniProt Q13557); assay: Selectivity interaction (KinomeScan (DiscoverX)) EUB0001581a CAMK2D
[10] = target: Insulin receptor-related protein (Homo sapiens) (UniProt P14616); assay: Selectivity interaction (KinomeScan (DiscoverX)) EUB0001581a INSRR
[11] = target: Tyrosine-protein kinase Srms (Homo sapiens) (UniProt Q9H3Y6); assay: Selectivity interaction (KinomeScan (DiscoverX)) EUB0001581a SRMS
[12] = target: Serine/threonine-protein kinase SIK2 (Homo sapiens) (UniProt Q9H0K1); assay: Selectivity interaction (KinomeScan (DiscoverX)) EUB0001581a SIK2
[13] = target: Activin receptor type-1 (Homo sapiens) (UniProt Q04771); assay: Selectivity interaction (KinomeScan (DiscoverX)) EUB0001581a ACVR1
[14] = target: LIM domain kinase 2 (Homo sapiens) (UniProt P53671); assay: Selectivity interaction (KinomeScan (DiscoverX)) EUB0001581a LIMK2
[15] = target: RAC-alpha serine/threonine-protein kinase (Homo sapiens, UniProt P31749); assay: Selectivity interaction (KinomeScan (DiscoverX)) EUB0001581a AKT1
[16] = target: Serine/threonine-protein kinase MRCK alpha (Homo sapiens) (UniProt Q5VT25); assay: Selectivity interaction (KinomeScan (DiscoverX)) EUB0001581a CDC42BPA
[17] = target: Tyrosine-protein kinase ABL2 (Homo sapiens, UniProt P42684); assay: Selectivity interaction (KinomeScan (DiscoverX)) EUB0001581a ABL2
[18] = target: Tyrosine-protein kinase Lck (Homo sapiens, UniProt P06239); assay: Selectivity interaction (KinomeScan (DiscoverX)) EUB0001581a LCK
[19] = target: Tyrosine-protein kinase Fer (Homo sapiens) (UniProt P16591); assay: Selectivity interaction (KinomeScan (DiscoverX)) EUB0001581a FER
[20] = target: Homeodomain-interacting protein kinase 2 (Homo sapiens, UniProt Q9H2X6); assay: Selectivity interaction (KinomeScan (DiscoverX)) EUB0001581a HIPK2
[21] = target: Dual specificity mitogen-activated protein kinase kinase 7 (Homo sapiens) (UniProt O14733); assay: Selectivity interaction (KinomeScan (DiscoverX)) EUB0001581a MAP2K7
[22] = target: Serine/threonine-protein kinase 32C (Homo sapiens) (UniProt Q86UX6); assay: Selectivity interaction (KinomeScan (DiscoverX)) EUB0001581a STK32C
[23] = target: Serine/threonine-protein kinase D3 (Homo sapiens) (UniProt O94806); assay: Selectivity interaction (KinomeScan (DiscoverX)) EUB0001581a PRKD3
[24] = target: Ribosomal protein S6 kinase alpha-5 (Homo sapiens) (UniProt O75582); assay: Selectivity interaction (KinomeScan (DiscoverX)) EUB0001581a RPS6KA5
[25] = target: Casein kinase I isoform delta (Homo sapiens, UniProt P48730); assay: Selectivity interaction (KinomeScan (DiscoverX)) EUB0001581a CSNK1D
[26] = target: cAMP-dependent protein kinase catalytic subunit PRKX (Homo sapiens) (UniProt P51817); assay: Selectivity interaction (KinomeScan (DiscoverX)) EUB0001581a PRKX
[27] = target: Receptor tyrosine-protein kinase erbB-2 (Homo sapiens, UniProt P04626); assay: Selectivity interaction (KinomeScan (DiscoverX)) EUB0001581a ERBB2
[28] = target: Tyrosine-protein kinase receptor Tie-1 (Homo sapiens) (UniProt P35590); assay: Selectivity interaction (KinomeScan (DiscoverX)) EUB0001581a TIE1
[29] = target: Serine/threonine-protein kinase 38 (Homo sapiens) (UniProt Q15208); assay: Selectivity interaction (KinomeScan (DiscoverX)) EUB0001581a STK38
[30] = target: Calcium/calmodulin-dependent protein kinase type 1G (Homo sapiens) (UniProt Q96NX5); assay: Selectivity interaction (KinomeScan (DiscoverX)) EUB0001581a CAMK1G
[31] = target: Phosphorylase b kinase gamma catalytic chain, liver/testis isoform (Homo sapiens) (UniProt P15735); assay: Selectivity interaction (KinomeScan (DiscoverX)) EUB0001581a PHKG2
[32] = target: Muscle, skeletal receptor tyrosine-protein kinase (Homo sapiens) (UniProt O15146); assay: Selectivity interaction (KinomeScan (DiscoverX)) EUB0001581a MUSK
[33] = target: Phosphatidylinositol 4-phosphate 5-kinase type-1 gamma (Homo sapiens) (UniProt O60331); assay: Selectivity interaction (KinomeScan (DiscoverX)) EUB0001581a PIP5K1C
[34] = target: Macrophage colony-stimulating factor 1 receptor (Homo sapiens) (UniProt P07333); assay: Selectivity interaction (KinomeScan (DiscoverX)) EUB0001581a CSF1R
[35] = target: RAF proto-oncogene serine/threonine-protein kinase (Homo sapiens) (UniProt P04049); assay: Selectivity interaction (KinomeScan (DiscoverX)) EUB0001581a RAF1
[36] = target: Rho-associated protein kinase 1 (Homo sapiens) (UniProt Q13464); assay: Selectivity interaction (KinomeScan (DiscoverX)) EUB0001581a ROCK1
[37] = target: Tyrosine-protein kinase TXK (Homo sapiens) (UniProt P42681); assay: Selectivity interaction (KinomeScan (DiscoverX)) EUB0001581a TXK
[38] = target: cGMP-dependent protein kinase 1 (Homo sapiens) (UniProt Q13976); assay: Selectivity interaction (KinomeScan (DiscoverX)) EUB0001581a PRKG1

By UniProt entry, the sequences of proteins in these tests, tags left out. Where a name states a change or a piece, a line headed by the entry shows the natural chain unless it says otherwise.
UniProt P07948: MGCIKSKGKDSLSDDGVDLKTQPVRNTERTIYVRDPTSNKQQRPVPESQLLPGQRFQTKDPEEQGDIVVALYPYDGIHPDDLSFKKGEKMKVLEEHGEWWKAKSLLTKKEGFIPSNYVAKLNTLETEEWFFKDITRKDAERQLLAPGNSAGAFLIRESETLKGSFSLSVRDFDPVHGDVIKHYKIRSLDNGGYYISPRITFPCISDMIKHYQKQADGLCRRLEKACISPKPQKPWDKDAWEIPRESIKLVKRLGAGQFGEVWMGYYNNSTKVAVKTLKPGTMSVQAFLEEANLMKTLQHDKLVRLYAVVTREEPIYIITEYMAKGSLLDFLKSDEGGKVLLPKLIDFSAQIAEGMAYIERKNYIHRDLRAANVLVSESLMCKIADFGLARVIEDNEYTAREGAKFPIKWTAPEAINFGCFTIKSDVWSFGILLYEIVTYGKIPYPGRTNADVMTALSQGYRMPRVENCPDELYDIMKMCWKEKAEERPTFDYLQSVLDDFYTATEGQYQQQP
UniProt P27448: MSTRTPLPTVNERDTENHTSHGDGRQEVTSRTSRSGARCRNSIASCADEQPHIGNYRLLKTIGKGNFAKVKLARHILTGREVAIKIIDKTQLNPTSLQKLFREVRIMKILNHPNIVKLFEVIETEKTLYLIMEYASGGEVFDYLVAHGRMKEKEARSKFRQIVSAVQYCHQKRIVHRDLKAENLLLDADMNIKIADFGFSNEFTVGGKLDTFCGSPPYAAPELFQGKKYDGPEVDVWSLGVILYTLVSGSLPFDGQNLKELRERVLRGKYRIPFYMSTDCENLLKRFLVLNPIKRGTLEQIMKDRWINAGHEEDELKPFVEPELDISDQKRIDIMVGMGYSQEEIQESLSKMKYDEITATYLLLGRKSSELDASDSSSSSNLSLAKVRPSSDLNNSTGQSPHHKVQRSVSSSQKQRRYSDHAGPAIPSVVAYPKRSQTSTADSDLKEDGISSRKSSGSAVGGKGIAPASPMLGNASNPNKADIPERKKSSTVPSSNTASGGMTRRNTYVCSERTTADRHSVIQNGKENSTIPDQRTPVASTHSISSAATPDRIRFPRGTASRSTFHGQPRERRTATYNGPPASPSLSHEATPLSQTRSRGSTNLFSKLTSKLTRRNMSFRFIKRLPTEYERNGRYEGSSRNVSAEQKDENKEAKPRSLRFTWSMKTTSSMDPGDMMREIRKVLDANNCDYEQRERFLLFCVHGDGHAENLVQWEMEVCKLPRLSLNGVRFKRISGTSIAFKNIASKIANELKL
UniProt Q04771: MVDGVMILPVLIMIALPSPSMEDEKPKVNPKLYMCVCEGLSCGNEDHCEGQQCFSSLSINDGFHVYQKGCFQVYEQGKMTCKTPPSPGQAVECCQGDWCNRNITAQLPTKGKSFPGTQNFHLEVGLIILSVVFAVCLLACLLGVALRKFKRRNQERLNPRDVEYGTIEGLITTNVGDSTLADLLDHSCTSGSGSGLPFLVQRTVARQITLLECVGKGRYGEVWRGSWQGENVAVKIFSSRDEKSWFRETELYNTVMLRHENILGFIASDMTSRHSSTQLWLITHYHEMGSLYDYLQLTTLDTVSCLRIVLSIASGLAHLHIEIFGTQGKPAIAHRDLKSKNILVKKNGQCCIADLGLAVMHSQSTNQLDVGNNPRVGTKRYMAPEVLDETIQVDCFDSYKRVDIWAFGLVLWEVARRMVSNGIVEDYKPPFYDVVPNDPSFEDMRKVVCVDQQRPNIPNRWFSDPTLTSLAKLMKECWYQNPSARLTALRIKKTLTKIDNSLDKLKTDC
UniProt P06239: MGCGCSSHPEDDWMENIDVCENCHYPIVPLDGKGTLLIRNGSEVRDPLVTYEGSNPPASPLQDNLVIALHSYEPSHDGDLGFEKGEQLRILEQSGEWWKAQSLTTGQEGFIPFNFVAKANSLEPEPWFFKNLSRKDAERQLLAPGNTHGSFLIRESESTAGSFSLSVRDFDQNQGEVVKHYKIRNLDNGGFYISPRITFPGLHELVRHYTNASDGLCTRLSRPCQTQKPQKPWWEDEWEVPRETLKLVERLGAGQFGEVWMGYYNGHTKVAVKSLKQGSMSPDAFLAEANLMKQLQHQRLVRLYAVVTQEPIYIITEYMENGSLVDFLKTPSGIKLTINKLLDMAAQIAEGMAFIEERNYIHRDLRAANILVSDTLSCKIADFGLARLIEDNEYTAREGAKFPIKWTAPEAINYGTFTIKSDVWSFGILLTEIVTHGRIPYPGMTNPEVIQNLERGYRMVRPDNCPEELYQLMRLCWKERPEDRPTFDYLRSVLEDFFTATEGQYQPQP
UniProt O14733: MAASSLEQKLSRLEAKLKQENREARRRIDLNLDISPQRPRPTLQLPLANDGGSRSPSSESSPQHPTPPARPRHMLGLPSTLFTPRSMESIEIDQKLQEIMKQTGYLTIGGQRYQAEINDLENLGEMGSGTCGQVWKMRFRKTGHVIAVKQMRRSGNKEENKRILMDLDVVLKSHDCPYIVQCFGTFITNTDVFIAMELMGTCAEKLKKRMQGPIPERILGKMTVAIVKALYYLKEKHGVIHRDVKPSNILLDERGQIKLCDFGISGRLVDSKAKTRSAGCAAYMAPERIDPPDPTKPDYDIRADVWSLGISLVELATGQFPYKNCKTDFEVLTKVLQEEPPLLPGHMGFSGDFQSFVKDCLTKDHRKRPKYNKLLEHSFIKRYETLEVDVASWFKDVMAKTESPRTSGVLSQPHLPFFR
UniProt O94806: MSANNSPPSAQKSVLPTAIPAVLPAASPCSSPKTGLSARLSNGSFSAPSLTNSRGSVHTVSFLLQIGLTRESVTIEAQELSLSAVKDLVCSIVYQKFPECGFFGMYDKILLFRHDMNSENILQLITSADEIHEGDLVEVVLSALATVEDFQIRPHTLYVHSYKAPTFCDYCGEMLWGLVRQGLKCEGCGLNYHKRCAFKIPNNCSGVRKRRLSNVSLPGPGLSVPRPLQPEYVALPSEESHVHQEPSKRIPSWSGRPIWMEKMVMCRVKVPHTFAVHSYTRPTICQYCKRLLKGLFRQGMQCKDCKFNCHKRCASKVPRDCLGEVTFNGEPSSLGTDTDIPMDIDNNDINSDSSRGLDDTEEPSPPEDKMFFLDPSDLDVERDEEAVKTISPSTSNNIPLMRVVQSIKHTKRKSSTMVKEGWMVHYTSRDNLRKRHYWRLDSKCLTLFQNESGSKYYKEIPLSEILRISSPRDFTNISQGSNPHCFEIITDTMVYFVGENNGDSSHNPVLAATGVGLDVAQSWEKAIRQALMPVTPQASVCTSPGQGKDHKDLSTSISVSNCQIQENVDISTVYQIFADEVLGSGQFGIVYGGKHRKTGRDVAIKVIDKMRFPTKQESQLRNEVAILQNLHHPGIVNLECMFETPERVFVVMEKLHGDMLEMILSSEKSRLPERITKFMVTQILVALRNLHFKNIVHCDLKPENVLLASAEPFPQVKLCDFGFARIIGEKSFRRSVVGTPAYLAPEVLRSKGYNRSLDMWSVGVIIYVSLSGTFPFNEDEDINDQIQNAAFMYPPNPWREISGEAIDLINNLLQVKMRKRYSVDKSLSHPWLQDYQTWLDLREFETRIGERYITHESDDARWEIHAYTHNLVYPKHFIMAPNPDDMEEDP
UniProt O75582, whole entry, looked up: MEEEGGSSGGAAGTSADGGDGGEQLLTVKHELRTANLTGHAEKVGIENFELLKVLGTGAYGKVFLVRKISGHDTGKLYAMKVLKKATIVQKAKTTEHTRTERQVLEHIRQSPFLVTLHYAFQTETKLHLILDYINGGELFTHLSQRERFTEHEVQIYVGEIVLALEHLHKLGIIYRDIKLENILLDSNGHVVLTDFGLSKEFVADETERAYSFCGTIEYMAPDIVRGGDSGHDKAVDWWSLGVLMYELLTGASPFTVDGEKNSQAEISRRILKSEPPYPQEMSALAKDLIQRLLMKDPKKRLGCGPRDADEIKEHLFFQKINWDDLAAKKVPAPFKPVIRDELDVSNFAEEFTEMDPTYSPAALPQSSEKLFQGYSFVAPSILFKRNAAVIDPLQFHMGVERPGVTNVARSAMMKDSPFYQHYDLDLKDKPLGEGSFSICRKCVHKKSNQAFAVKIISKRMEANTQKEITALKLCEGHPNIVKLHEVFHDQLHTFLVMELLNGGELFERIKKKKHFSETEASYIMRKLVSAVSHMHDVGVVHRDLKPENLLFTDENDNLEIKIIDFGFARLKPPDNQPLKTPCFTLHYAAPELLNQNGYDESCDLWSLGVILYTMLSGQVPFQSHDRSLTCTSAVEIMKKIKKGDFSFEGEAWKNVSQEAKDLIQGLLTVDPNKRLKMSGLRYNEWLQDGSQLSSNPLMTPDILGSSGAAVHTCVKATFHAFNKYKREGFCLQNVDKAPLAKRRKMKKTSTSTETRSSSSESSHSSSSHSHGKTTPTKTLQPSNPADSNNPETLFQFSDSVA
UniProt Q15208: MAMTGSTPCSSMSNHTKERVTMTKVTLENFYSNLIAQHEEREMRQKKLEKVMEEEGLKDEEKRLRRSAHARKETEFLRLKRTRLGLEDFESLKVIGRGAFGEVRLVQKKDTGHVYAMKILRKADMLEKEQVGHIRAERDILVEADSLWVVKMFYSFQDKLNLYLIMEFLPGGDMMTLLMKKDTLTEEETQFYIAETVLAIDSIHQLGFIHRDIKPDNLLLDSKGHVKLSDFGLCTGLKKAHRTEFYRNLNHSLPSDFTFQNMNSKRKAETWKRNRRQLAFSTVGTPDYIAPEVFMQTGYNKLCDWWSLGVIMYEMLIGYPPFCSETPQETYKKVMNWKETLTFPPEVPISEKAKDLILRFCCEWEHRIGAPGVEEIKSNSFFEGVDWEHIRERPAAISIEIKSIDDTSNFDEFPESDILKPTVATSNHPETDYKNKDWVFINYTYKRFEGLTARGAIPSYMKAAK
UniProt P07333, whole entry: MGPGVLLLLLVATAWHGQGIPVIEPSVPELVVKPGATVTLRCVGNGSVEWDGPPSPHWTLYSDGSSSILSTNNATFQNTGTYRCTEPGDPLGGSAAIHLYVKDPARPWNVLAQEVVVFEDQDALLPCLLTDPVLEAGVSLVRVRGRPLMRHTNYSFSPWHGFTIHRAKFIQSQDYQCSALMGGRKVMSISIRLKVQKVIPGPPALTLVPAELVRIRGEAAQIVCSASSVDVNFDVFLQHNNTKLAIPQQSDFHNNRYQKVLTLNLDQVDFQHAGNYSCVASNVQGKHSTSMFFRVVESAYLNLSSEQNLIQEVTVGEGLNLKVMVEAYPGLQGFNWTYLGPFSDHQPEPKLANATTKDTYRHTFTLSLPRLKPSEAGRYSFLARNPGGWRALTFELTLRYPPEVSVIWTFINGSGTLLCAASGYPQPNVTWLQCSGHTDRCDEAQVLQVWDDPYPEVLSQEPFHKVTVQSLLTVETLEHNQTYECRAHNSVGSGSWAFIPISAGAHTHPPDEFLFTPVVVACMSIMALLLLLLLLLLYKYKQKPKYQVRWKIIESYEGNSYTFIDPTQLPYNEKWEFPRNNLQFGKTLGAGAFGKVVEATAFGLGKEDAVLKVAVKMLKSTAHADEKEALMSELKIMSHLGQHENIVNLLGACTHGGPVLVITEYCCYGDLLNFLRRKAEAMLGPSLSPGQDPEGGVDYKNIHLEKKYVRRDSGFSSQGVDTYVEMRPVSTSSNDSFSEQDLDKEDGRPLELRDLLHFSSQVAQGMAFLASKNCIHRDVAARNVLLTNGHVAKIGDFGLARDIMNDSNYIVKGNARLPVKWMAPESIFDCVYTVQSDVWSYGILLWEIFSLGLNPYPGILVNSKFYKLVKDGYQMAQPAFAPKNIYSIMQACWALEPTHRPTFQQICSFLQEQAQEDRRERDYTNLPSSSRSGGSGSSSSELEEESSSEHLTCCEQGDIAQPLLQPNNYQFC
UniProt P42681: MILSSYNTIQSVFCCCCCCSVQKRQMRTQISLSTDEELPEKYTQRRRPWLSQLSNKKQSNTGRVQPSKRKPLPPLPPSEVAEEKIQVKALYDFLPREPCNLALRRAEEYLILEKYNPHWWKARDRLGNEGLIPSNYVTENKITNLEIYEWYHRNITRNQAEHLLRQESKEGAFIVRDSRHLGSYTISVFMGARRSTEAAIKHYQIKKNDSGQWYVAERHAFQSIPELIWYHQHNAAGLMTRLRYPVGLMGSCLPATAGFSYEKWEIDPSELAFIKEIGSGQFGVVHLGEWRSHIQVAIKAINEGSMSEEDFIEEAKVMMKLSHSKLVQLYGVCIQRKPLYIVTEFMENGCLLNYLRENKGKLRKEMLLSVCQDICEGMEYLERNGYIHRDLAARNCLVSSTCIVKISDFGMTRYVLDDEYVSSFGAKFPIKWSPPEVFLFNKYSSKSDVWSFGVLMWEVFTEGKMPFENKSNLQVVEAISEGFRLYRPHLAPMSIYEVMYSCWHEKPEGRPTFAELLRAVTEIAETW

Compound C[C@@H]1C[C@H](N)C[C@H](c2ccncc2NC(=O)c2ccc(F)c(-c3c(F)cccc3F)n2)C1 has a % of control [1] of 84%, a % of control [2] of 100% and a % of control [3] of 60%. For the same compound, the % of control [4] was 100%, the % of control [5] was 98% and the % of control [6] was 100%. For the same compound, the % of control [7] was 99%, the % of control [8] was 77% and the % of control [9] was 100%. The % of control [10] was 100%, the % of control [11] was 85% and the % of control [12] was 100%. For the same compound, the % of control [13] was 87%, the % of control [14] was 100% and the % of control [15] was 100%. The % of control [16] was 100%, the % of control [17] was 100% and the % of control [18] was 98%. The % of control [19] was 100%, the % of control [20] was 52% and the % of control [21] was 100%. It also gave a % of control [22] of 100%, a % of control [23] of 34% and a % of control [24] of 100%. It also gave a % of control [25] of 97%, a % of control [26] of 100% and a % of control [27] of 92%. It also gave a % of control [28] of 100%, a % of control [29] of 100% and a % of control [30] of 83%. It also gave a % of control [31] of 100%, a % of control [32] of 100% and a % of control [33] of 100%. For the same compound, the % of control [34] was 81%, the % of control [35] was 98% and the % of control [36] was 100%. The % of control [37] was 97% and the % of control [38] was 84%.
